Out of some 390,000 compounds screened, about 610 (0.16%) were called active. Inconclusive means that the source gave no clear call. Such entries were picked first, then a sample of the others. Calls come from the whole dose curve; as a rule, active = well fitted inhibition curve with a large enough effect; inconclusive = small, poorly fitted or top-dose-only effect, or effect the other way, or another doubt; inactive = no such curve, though single readings can be large or run the other way. A potency beside an inconclusive call is a rough fit, not a confirmed value.
test: Nrf2 qHTS screen for inhibitors: counterscreen for cytotoxicity; details: A549 ARE-Fluc cells, CellTiter-Fluor viability, 18-24 h; series mostly up to 46 µM
Outline: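 A549 ARE-Fluc cells in 5% FBS OPTI-MEM, 5000 cells/well, rested 2 h then exposed to compounds in concentration-response for 18-24 h at 37 °C. Viability by CellTiter-Fluor fluorescence (Ex 405/Em 525) after 30 min; luciferase luminescence (BugLite, 15 min, RT) read afterwards.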
Potency is the fitted concentration of half-maximal effect.

Structure (SMILES) | Potency
CNC(=O)C1CCC(Cn2c(=O)c3sccc3n(Cc3ccccc3)c2=O)CC1 (centres undefined) | inactive
Cc1cn2c(=O)cc(COC(=O)c3cccc(NC(=O)C(C)Oc4ccccc4)c3)nc2s1 (centres undefined) | inactive
CCOc1cc2[nH]c(=S)n(Cc3ccc(C(=O)N4CCN(C)CC4)cc3)c(=O)c2cc1OCC | inconclusive: 25.9 µM [falling, single point]
Cc1ccccc1NC(=O)CSc1ncc2c(n1)-c1ccccc1N(C)S2(=O)=O | inactive
CN(C)c1ccc(C2/C(=C(/O)c3ccc(Br)cc3)C(=O)C(=O)N2C)cc1 (centres undefined) | inactive
CCOC(=O)c1c(NC(=O)CN2CCN(C(=O)c3ccco3)CC2)sc2c1CCCC2 | inactive
CC1CC(C)CN(C(=O)c2ccc3c(c2NCCO)C(=O)c2ccccc2C3=O)C1 (centres undefined) | inconclusive: 29.1 µM [falling, single point]
COc1cccc(CNC(=O)C(=O)NCC(c2cccs2)S(=O)(=O)c2cccs2)c1 (centres undefined) | inactive
O=C(COC(=O)c1cc([N+](=O)[O-])ccc1N1CCOCC1)c1ccc(Br)cc1 | inconclusive: 29.1 µM [falling, single point]
Cc1ccc(NC(=O)CCN2CCN(C/C=C/c3ccccc3)CC2)cc1 | inconclusive: 16.4 µM [falling, partial curve, poor fit]
O=C(/C=C/c1ccc([N+](=O)[O-])cc1)N1CCN(S(=O)(=O)c2cccs2)CC1 | inconclusive: 13 µM [activator, partial curve, poor fit]
COc1ccccc1-c1cc(C(F)(F)F)nc(N2CCOCC2)n1 | inactive
Cc1onc(-c2ccccc2)c1C(=O)c1c[nH]c(C(=O)NCc2ccccn2)c1 | inconclusive: 5.17 µM [activator, single point]
COC(=O)c1c(SC)nc2ccccc2c1OCc1cccc(C)c1 | inconclusive: 32.6 µM [activator, partial curve, poor fit]
Cc1cccc2c(N=NC(=O)c3ccc(NS(=O)(=O)c4cccs4)cc3)c(O)[nH]c12 | inconclusive: 16.4 µM [falling, single point]
COc1ccccc1-c1cc(C(=O)Nc2c(C)nn(Cc3ccc(Cl)cc3)c2C)no1 | inconclusive: 29.1 µM [falling, single point]
Cc1ccccc1C(=O)Nc1cccc(-c2nc3cccnc3s2)c1 | inactive
CN(C)/C=c1\sc2c(C#N)cc(C(=O)c3ccc(Br)cc3)n2c1=O | inactive
Cc1ccc(OCC(=O)NNc2c3ccccc3nc3ccccc23)cc1 | inconclusive: 20.6 µM [falling, single point]
O=C(Nc1ccccc1)NN(C(=O)CCl)c1ccccc1 | inconclusive: 11.6 µM [falling, partial curve, poor fit]
CCCN(CCC)C(=O)c1c[nH]c2ccc(S(=O)(=O)N(C)c3ccc(Cl)cc3)cc2c1=O | inactive
COC(=O)c1ccc(NC(=O)c2cc3cc(C)ccc3n2C)cc1 | inactive

A section of the results above, as a working copy:
Structure (SMILES) | Potency
CCCN(CCC)C(=O)c1c[nH]c2ccc(S(=O)(=O)N(C)c3ccc(Cl)cc3)cc2c1=O | inactive
COC(=O)c1ccc(NC(=O)c2cc3cc(C)ccc3n2C)cc1 | inactive

Continued.

Structure (SMILES) | Potency
Cc1ccc2nc(NCCC(=O)O)nc(-c3ccccc3)c2c1 | inconclusive: 10.3 µM [activator, partial curve]
O=Nc1ccc(O)c2ncccc12 | inconclusive: 13 µM [falling, single point]
CCCCc1ccc(NC(=O)CSc2nc(=O)n(CCN(CC)CC)c3c2CCC3)cc1 | inconclusive: 32.6 µM [falling, partial curve, poor fit]
CCOC(=O)c1sc(NC(=O)Nc2cccc(Cl)c2)cc1C | inconclusive: 29.1 µM [falling, single point]
O=c1cc(-c2ccccc2Cl)oc2c(NS(=O)(=O)c3ccccc3OC(F)(F)F)ccc(O)c12 | inconclusive: 29.1 µM [falling, partial curve, poor fit]
O=C(C1CCCCC1)N1CCCC(c2nc(-c3ccc(F)cc3)no2)C1 (centres undefined) | inconclusive: 29.1 µM [falling, single point]
CCn1c(=O)cc(SCC(=O)N2CCN(c3ccccn3)CC2)c2ccccc21 | inconclusive: 16.4 µM [activator, partial curve]
COc1cc(OC)cc(-c2cc3nc4c(c(N5CCN(c6ncccn6)CC5)n3n2)CCCC4)c1 | inactive
COc1ccc(C)cc1N=Nc1ccc(O)c2ncccc12 | inconclusive: 25.9 µM [falling, single point]
CN1CCN(S(=O)(=O)c2ccc([N+](=O)[O-])cc2)CC1 | inconclusive: 2.06 µM [activator, partial curve, poor fit]
C=C(C)COc1ccc(-c2n[nH]c(C)c2-c2ccc(Br)cc2)c(O)c1 | inactive
N#Cc1c(N)oc(-c2ccco2)c1-c1ccco1 | inactive
Cc1c(Cl)c([N+](=O)[O-])nn1Cc1ccc(C(=O)N/N=C\c2cccc(Br)c2)o1 | inconclusive: 18.4 µM [falling, partial curve, poor fit]
CCOC(=O)c1c(NC(C)=O)sc2c1CCC(C=O)=C2Sc1ccccc1 | inconclusive: 16.4 µM [falling, single point]
CC(C)Cn1c(=O)c2ccccc2n2c(CCC(=O)N3CCN(c4ccccc4F)CC3)nnc12 | inactive
O=C(NCCCO)c1cc2c([nH]c3ccccc32)c(-c2ccc(F)cc2)n1 | inconclusive: 29.1 µM [falling, single point]
COc1ccccc1N1CCN(C(c2ccccc2Cl)c2nnnn2C(C)(C)C)CC1 (centres undefined) | inconclusive: 32.6 µM [falling, partial curve, poor fit]
CCOC(=O)CCc1c(C)nc(SCC(=O)O)c(C#N)c1C | inconclusive: 8.2 µM [activator, single point]
NNc1nnc(-c2ccccc2)c(-c2ccccc2)n1 | inconclusive: 20.6 µM [falling, single point]
O=C(COc1ccccc1F)Nc1ccc(-c2nc3ccccc3s2)cc1 | inactive
CCc1cccc(NC(=O)Nc2csc3c2CCCC3)c1 | inactive
Cc1ccc(NC(=O)CNC(=O)c2cccc(C)c2)nc1 | inconclusive: 23.1 µM [falling, single point]
